Data from the supplement of paper PMC8728848.
This is one part of the list.

Assays:
Assay in all cases: glycan array binding signal (z-score within array); higher = stronger binding
Settings in all cases: glycan notation: IUPAC condensed, linker removed
[1] = target: Fuc(a1-2)[Gal(a1-3)]Gal(b1-4)GlcNAc(b1-2)Man(a1-3)[Fuc(a1-2)[Gal(a1-3)]Gal(b1-4)GlcNAc(b1-2)Man(a1-6)]Man(b1-4)GlcNAc(b1-4)[Fuc(a1-6)]GlcNAc
How it was run: (§1)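 Columns mapping to the same glycan were averaged after glycan names were converted to IUPAC-condensed notation. The data come from 3228 arrays in the Consortium for Functional Glycomics database, limited to those with an available protein sequence. Binding is reported as a within-array Z-score averaged across arrays of one protein sequence and across linkers.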

[2] = target: Fuc(a1-2)[Gal(a1-3)]Gal(b1-4)GlcNAc(b1-3)GalNAc
How it was run: as §1

[3] = target: Fuc(a1-2)[Gal(a1-3)]Gal(b1-4)GlcNAc(b1-6)GalNAc
How it was run: as §1

[4] = target: Fuc(a1-2)[Gal(a1-3)]Gal(b1-4)[Fuc(a1-3)]Glc
How it was run: as §1

[5] = target: Fuc(a1-2)[Gal(a1-3)]Gal(b1-4)[Fuc(a1-3)]GlcNAc
How it was run: as §1

[6] = target: Fuc(a1-2)[Gal(a1-3)]Gal(b1-4)[Fuc(a1-3)]GlcNAc(b1-3)GalNAc
How it was run: as §1

[7] = target: Fuc(a1-2)[Gal(a1-4)]Gal(b1-4)GlcNAc
How it was run: as §1

[8] = target: Fuc(a1-2)[GalNAc(a1-3)]Gal
How it was run: as §1

[9] = target: Fuc(a1-2)[GalNAc(a1-3)]Gal(b1-3)GalNAc(a1-3)[Fuc(a1-2)]Gal(b1-4)GlcNAc
How it was run: as §1

[10] = target: Fuc(a1-2)[GalNAc(a1-3)]Gal(b1-3)GalNAc(b1-3)Gal(a1-4)Gal(b1-4)Glc
How it was run: as §1

[11] = target: Fuc(a1-2)[GalNAc(a1-3)]Gal(b1-3)GlcNAc
How it was run: as §1

[12] = target: Fuc(a1-2)[GalNAc(a1-3)]Gal(b1-3)GlcNAc(b1-2)Man(a1-3)[Fuc(a1-2)[GalNAc(a1-3)]Gal(b1-3)GlcNAc(b1-2)Man(a1-6)]Man(b1-4)GlcNAc(b1-4)GlcNAc
How it was run: as §1

[13] = target: Fuc(a1-2)[GalNAc(a1-3)]Gal(b1-3)GlcNAc(b1-2)Man(a1-3)[Fuc(a1-2)[GalNAc(a1-3)]Gal(b1-3)GlcNAc(b1-2)Man(a1-6)]Man(b1-4)GlcNAc(b1-4)[Fuc(a1-6)]GlcNAc
How it was run: as §1

[14] = target: Fuc(a1-2)[GalNAc(a1-3)]Gal(b1-3)GlcNAc(b1-3)GalNAc
How it was run: as §1

[15] = target: Fuc(a1-2)[GalNAc(a1-3)]Gal(b1-3)GlcNAc(b1-6)GalNAc
How it was run: as §1

[16] = target: Fuc(a1-2)[GalNAc(a1-3)]Gal(b1-4)Glc
How it was run: as §1

[17] = target: Fuc(a1-2)[GalNAc(a1-3)]Gal(b1-4)GlcNAc
How it was run: as §1

[18] = target: Fuc(a1-2)[GalNAc(a1-3)]Gal(b1-4)GlcNAc(b1-2)Man
How it was run: as §1

[19] = target: Fuc(a1-2)[GalNAc(a1-3)]Gal(b1-4)GlcNAc(b1-2)Man(a1-3)[Fuc(a1-2)[GalNAc(a1-3)]Gal(b1-4)GlcNAc(b1-2)Man(a1-6)]Man(b1-4)GlcNAc(b1-4)GlcNAc
How it was run: as §1

[20] = target: Fuc(a1-2)[GalNAc(a1-3)]Gal(b1-4)GlcNAc(b1-2)Man(a1-3)[Fuc(a1-2)[GalNAc(a1-3)]Gal(b1-4)GlcNAc(b1-2)Man(a1-6)]Man(b1-4)GlcNAc(b1-4)[Fuc(a1-6)]GlcNAc
How it was run: as §1

[21] = target: Fuc(a1-2)[GalNAc(a1-3)]Gal(b1-4)GlcNAc(b1-3)Gal(b1-4)GlcNAc
How it was run: as §1

[22] = target: Fuc(a1-2)[GalNAc(a1-3)]Gal(b1-4)GlcNAc(b1-3)Gal(b1-4)GlcNAc(b1-3)Gal(b1-4)GlcNAc
How it was run: as §1

[23] = target: Fuc(a1-2)[GalNAc(a1-3)]Gal(b1-4)GlcNAc(b1-3)GalNAc
How it was run: as §1

[24] = target: Fuc(a1-2)[GalNAc(a1-3)]Gal(b1-4)GlcNAc(b1-3)[Fuc(a1-2)[GalNAc(a1-3)]Gal(b1-4)GlcNAc(b1-6)]GalNAc
How it was run: as §1

[25] = target: Fuc(a1-2)[GalNAc(a1-3)]Gal(b1-4)GlcNAc(b1-6)GalNAc
How it was run: as §1

[26] = target: Fuc(a1-2)[GalNAc(a1-3)]Gal(b1-4)[Fuc(a1-3)]GlcNAc
How it was run: as §1

[27] = target: Fuc(a1-2)[GalNAc(a1-3)]Gal(b1-4)[Fuc(a1-3)]GlcNAc(b1-3)GalNAc
How it was run: as §1

[28] = target: Fuc(a1-2)[GalNAc(a1-4)]Gal(b1-4)GlcNAc
How it was run: as §1

[29] = target: Fuc(a1-2)[GalNAc(b1-3)]Gal
How it was run: as §1

Fuc(a1-3)GlcNAc = target: Fuc(a1-3)GlcNAc
How it was run: as §1

[30] = target: Fuc(a1-3)[Gal(b1-4)]Glc6S
How it was run: as §1

[31] = target: Fuc(a1-3)[Gal(b1-4)]GlcNAc
How it was run: as §1

[32] = target: Fuc(a1-3)[Gal(b1-4)]GlcNAc(b1-2)Man
How it was run: as §1

[33] = target: Fuc(a1-3)[Gal(b1-4)]GlcNAc(b1-2)Man(a1-3)[Fuc(a1-3)[Gal(b1-4)]GlcNAc(b1-2)Man(a1-6)]Man(b1-4)GlcNAc(b1-4)GlcNAc
How it was run: as §1

[34] = target: Fuc(a1-3)[Gal(b1-4)]GlcNAc(b1-2)Man(a1-3)[Fuc(a1-3)[Gal(b1-4)]GlcNAc(b1-2)Man(a1-6)]Man(b1-4)GlcNAc(b1-4)[Fuc(a1-6)]GlcNAc
How it was run: as §1

[35] = target: Fuc(a1-3)[Gal(b1-4)]GlcNAc(b1-3)Gal(b1-3)[Fuc(a1-4)]GlcNAc
How it was run: as §1

[36] = target: Fuc(a1-3)[Gal(b1-4)]GlcNAc(b1-3)Gal(b1-4)[Fuc(a1-3)]GlcNAc
How it was run: as §1

B1: FliC (Clostridium difficile) (protein)
chain: MRVNTNVSALIANNQMGRNVNGQSKSMEKLSSGVRIKRAADDAAGLAISEKMRAQIKGLDQAGRNVQDGISVVQTAEGSLEETGNILQRMRTLSLQSANEINNTEEREKIADELTQLKDEIERISSSTEFNGKKLLDGTSSTIRLQVGASYGTNVSGTSNNNNEIKIQLVNTASIMASAGITTASIGSMKAGGTTGTDAAKTMVSSLDAALKSLNSSRAKLGAQQNRLESTQNNLNNTLENVTAAESRIRDTDVASEMVNLSKMNILVQASQSMLAQANQQPQGVLQLLG
glycan array binding signal (z-score) [1]: -0.063
glycan array binding signal (z-score) [2]: -0.189
glycan array binding signal (z-score) [3]: -0.094
glycan array binding signal (z-score) [4]: 0.019
glycan array binding signal (z-score) [5]: 1.1
glycan array binding signal (z-score) [6]: 1.28
glycan array binding signal (z-score) [7]: -0.239
glycan array binding signal (z-score) [8]: -0.23
glycan array binding signal (z-score) [9]: -0.598
glycan array binding signal (z-score) [10]: -0.483
glycan array binding signal (z-score) [11]: -0.807
glycan array binding signal (z-score) [12]: -0.628
glycan array binding signal (z-score) [13]: 1.26
glycan array binding signal (z-score) [14]: -0.43
glycan array binding signal (z-score) [15]: -0.176
glycan array binding signal (z-score) [16]: -0.381
glycan array binding signal (z-score) [17]: -0.677
glycan array binding signal (z-score) [18]: -0.698
glycan array binding signal (z-score) [19]: 0.362
glycan array binding signal (z-score) [20]: 0.713
glycan array binding signal (z-score) [21]: 0.703
glycan array binding signal (z-score) [22]: 0.873
glycan array binding signal (z-score) [23]: 0.431
glycan array binding signal (z-score) [24]: 0.005
glycan array binding signal (z-score) [25]: -0.283
glycan array binding signal (z-score) [26]: -0.174
glycan array binding signal (z-score) [27]: -0.106
glycan array binding signal (z-score) [28]: -0.165
glycan array binding signal (z-score) [29]: -0.533
glycan array binding signal (z-score) (Fuc(a1-3)GlcNAc): -0.747
glycan array binding signal (z-score) [30]: 0.165
glycan array binding signal (z-score) [31]: -0.337
glycan array binding signal (z-score) [32]: -0.202
glycan array binding signal (z-score) [33]: 1.35
glycan array binding signal (z-score) [34]: 0.331
glycan array binding signal (z-score) [35]: -0.313
glycan array binding signal (z-score) [36]: -0.063
